PubChem BioAssay AID1224830 – NIAID | 2016

Screen: 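Host factors that control LPS-induced TNF expression in human macrophages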 (primary screen)
Cell system: human THP-1 monocytic leukaemia cells, TNF dual-luciferase reporter clone, PMA-differentiated to macrophage-like cells
Reagents: siRNA pool against human genes, 50 nM
Duration: LPS for 4 h, given about 3 days after siRNA transfection
Challenge: bacterial LPS (TLR4 ligand), 10 ng/ml
Read-out: 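TNF firefly reporter luminescence divided by renilla, normalised to the plate median, then turned into a robust z-score for each replicate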
Direction: TNF reporter robust z-score: higher = stronger TNF reporter response to LPS
Active means: 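Each well counts as active if its z-score is over 2.8 or under -1.5; controls are left without a call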
The deposit covers about 18,000 reagents; below is an unselected part. About 2,900 of them (16%) count as active. 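Calls are made per well; low scores hint the gene aids the LPS response, high scores that it dampens it.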 Repeated entries: four replicate wells of each siRNA pool.

Against CSNK1G1 (casein kinase 1 gamma 1), the entry reads TNF reporter robust z-score -0.81; inactive. After knock-down of CSNK1G1 (casein kinase 1 gamma 1) the results were TNF reporter robust z-score -0.77; inactive. For CSNK1G1 (casein kinase 1 gamma 1), the values are TNF reporter robust z-score -0.21; inactive. After knock-down of CSNK1G1 (casein kinase 1 gamma 1), the record shows TNF reporter robust z-score 0.18; inactive. Silencing of ETF1 (eukaryotic translation termination factor 1) gave: TNF reporter robust z-score -0.05; inactive. Depletion of ETF1 (eukaryotic translation termination factor 1) came out at: TNF reporter robust z-score 0.16; inactive.

For ETF1 (eukaryotic translation termination factor 1) the deposit lists TNF reporter robust z-score -0.07; inactive. For ETF1 (eukaryotic translation termination factor 1) the deposit lists TNF reporter robust z-score -0.37; inactive. ITGA8 (integrin subunit alpha 8) showed TNF reporter robust z-score -0.53; inactive. Silencing of ITGA8 (integrin subunit alpha 8) came out at: TNF reporter robust z-score 0.05; inactive. Against ITGA8 (integrin subunit alpha 8), the entry reads TNF reporter robust z-score 0.55; inactive. ITGA8 (integrin subunit alpha 8) scored TNF reporter robust z-score -1.21; inactive.

SRFBP1 (serum response factor binding protein 1) showed TNF reporter robust z-score 0.58; inactive. For SRFBP1 (serum response factor binding protein 1) the deposit lists TNF reporter robust z-score 3.15; active. With knock-down of SRFBP1 (serum response factor binding protein 1) the results were TNF reporter robust z-score 3.43; active. SRFBP1 (serum response factor binding protein 1) gave TNF reporter robust z-score -0.56; inactive. With knock-down of CASKIN1 (CASK interacting protein 1) the results were TNF reporter robust z-score -1.95; active. For CASKIN1 (CASK interacting protein 1) the deposit lists TNF reporter robust z-score -1.72; active.

Silencing of CASKIN1 (CASK interacting protein 1) gave: TNF reporter robust z-score -1.58; active. Against CASKIN1 (CASK interacting protein 1), the entry reads TNF reporter robust z-score -1.37; inactive. Depletion of TEF (TEF transcription factor, PAR bZIP family member) came out at: TNF reporter robust z-score -1.4; inactive. With knock-down of TEF (TEF transcription factor, PAR bZIP family member), the screen gave TNF reporter robust z-score -1; inactive. After knock-down of TEF (TEF transcription factor, PAR bZIP family member) the results were TNF reporter robust z-score -1.68; active. TEF (TEF transcription factor, PAR bZIP family member) scored TNF reporter robust z-score -0.68; inactive.

After knock-down of EEPD1 the results were TNF reporter robust z-score 0.08; inactive. After knock-down of EEPD1, the record shows TNF reporter robust z-score 1.3; inactive. Against EEPD1 the deposit lists TNF reporter robust z-score 0.67; inactive. EEPD1 showed TNF reporter robust z-score 0.14; inactive. With knock-down of UGT2A1 (UDP glucuronosyltransferase family 2 member A1 complex locus), the screen gave TNF reporter robust z-score 0.62; inactive. With knock-down of UGT2A1 (UDP glucuronosyltransferase family 2 member A1 complex locus), the screen gave TNF reporter robust z-score 1.04; inactive.

Knock-down of UGT2A1 (UDP glucuronosyltransferase family 2 member A1 complex locus) gave: TNF reporter robust z-score -0.33; inactive. UGT2A1 (UDP glucuronosyltransferase family 2 member A1 complex locus) gave TNF reporter robust z-score 0.31; inactive. For POLR3D (RNA polymerase III subunit D), the values are TNF reporter robust z-score -0.23; inactive. Knock-down of POLR3D (RNA polymerase III subunit D) came out at: TNF reporter robust z-score 1.45; inactive. Silencing of POLR3D (RNA polymerase III subunit D) resulted in: TNF reporter robust z-score 1.09; inactive. With knock-down of POLR3D (RNA polymerase III subunit D), the screen gave TNF reporter robust z-score 1.83; inactive.

ODF4 (outer dense fiber of sperm tails 4) scored TNF reporter robust z-score -0.63; inactive. Depletion of ODF4 (outer dense fiber of sperm tails 4) gave: TNF reporter robust z-score 0.43; inactive. Silencing of ODF4 (outer dense fiber of sperm tails 4) gave: TNF reporter robust z-score 0.02; inactive. Knock-down of ODF4 (outer dense fiber of sperm tails 4) came out at: TNF reporter robust z-score 1.08; inactive. Depletion of UBA3 (ubiquitin like modifier activating enzyme 3) resulted in: TNF reporter robust z-score 0.72; inactive. UBA3 (ubiquitin like modifier activating enzyme 3) gave TNF reporter robust z-score -0.46; inactive.

UBA3 (ubiquitin like modifier activating enzyme 3) gave TNF reporter robust z-score -1.64; active. For UBA3 (ubiquitin like modifier activating enzyme 3), the entry reads TNF reporter robust z-score 1.7; inactive. For PKD1L3, the values are TNF reporter robust z-score 0.41; inactive. Against PKD1L3, the entry reads TNF reporter robust z-score 0.04; inactive. For PKD1L3, the entry reads TNF reporter robust z-score 1.04; inactive. PKD1L3 showed TNF reporter robust z-score -0.38; inactive.

Knock-down of ZMYND10 (zinc finger MYND-type containing 10) resulted in: TNF reporter robust z-score -0.5; inactive. ZMYND10 (zinc finger MYND-type containing 10) scored TNF reporter robust z-score 0.12; inactive. ZMYND10 (zinc finger MYND-type containing 10) gave TNF reporter robust z-score -0.29; inactive. Silencing of ZMYND10 (zinc finger MYND-type containing 10) resulted in: TNF reporter robust z-score -0.67; inactive. GPM6B (glycoprotein M6B) gave TNF reporter robust z-score -1.46; inactive. With knock-down of GPM6B (glycoprotein M6B), the record shows TNF reporter robust z-score -0.78; inactive.

Against GPM6B (glycoprotein M6B), the values are TNF reporter robust z-score -0.39; inactive. For GPM6B (glycoprotein M6B), the values are TNF reporter robust z-score -0.86; inactive. For FAM89A (family with sequence similarity 89 member A), the entry reads TNF reporter robust z-score 1.94; inactive. For FAM89A (family with sequence similarity 89 member A) the deposit lists TNF reporter robust z-score 0; inactive. FAM89A (family with sequence similarity 89 member A) scored TNF reporter robust z-score 0.22; inactive. With knock-down of FAM89A (family with sequence similarity 89 member A), the screen gave TNF reporter robust z-score 1; inactive.

Records listed above called active:
SRFBP1 (serum response factor binding protein 1) — TNF reporter robust z-score = 3.15; Outcome = active
SRFBP1 (serum response factor binding protein 1) — TNF reporter robust z-score = 3.43; Outcome = active
CASKIN1 (CASK interacting protein 1) — TNF reporter robust z-score = -1.95; Outcome = active
CASKIN1 (CASK interacting protein 1) — TNF reporter robust z-score = -1.72; Outcome = active
CASKIN1 (CASK interacting protein 1) — TNF reporter robust z-score = -1.58; Outcome = active
TEF (TEF transcription factor, PAR bZIP family member) — TNF reporter robust z-score = -1.68; Outcome = active
UBA3 (ubiquitin like modifier activating enzyme 3) — TNF reporter robust z-score = -1.64; Outcome = active
